The record followed here is US20230220056A1.

Protein sequences, listed by entry. Tags and fused reporters are not part of them. Residues count along the entry.
UniProt P02769, residues 25-607: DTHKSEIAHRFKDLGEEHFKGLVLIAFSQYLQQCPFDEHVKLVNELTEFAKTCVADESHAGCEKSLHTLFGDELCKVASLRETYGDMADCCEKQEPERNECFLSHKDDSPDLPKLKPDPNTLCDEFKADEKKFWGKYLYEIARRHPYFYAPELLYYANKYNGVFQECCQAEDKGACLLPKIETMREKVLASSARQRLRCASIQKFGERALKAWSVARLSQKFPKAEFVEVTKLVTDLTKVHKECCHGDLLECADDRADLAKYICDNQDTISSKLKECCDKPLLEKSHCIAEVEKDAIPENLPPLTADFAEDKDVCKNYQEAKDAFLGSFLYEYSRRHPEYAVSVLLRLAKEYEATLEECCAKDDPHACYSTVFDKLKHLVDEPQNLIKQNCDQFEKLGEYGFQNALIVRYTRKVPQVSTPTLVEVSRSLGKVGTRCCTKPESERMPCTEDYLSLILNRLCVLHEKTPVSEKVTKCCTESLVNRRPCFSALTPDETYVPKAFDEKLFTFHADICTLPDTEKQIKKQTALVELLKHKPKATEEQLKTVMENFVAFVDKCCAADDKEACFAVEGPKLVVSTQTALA
UniProt P14625, residues 22-799: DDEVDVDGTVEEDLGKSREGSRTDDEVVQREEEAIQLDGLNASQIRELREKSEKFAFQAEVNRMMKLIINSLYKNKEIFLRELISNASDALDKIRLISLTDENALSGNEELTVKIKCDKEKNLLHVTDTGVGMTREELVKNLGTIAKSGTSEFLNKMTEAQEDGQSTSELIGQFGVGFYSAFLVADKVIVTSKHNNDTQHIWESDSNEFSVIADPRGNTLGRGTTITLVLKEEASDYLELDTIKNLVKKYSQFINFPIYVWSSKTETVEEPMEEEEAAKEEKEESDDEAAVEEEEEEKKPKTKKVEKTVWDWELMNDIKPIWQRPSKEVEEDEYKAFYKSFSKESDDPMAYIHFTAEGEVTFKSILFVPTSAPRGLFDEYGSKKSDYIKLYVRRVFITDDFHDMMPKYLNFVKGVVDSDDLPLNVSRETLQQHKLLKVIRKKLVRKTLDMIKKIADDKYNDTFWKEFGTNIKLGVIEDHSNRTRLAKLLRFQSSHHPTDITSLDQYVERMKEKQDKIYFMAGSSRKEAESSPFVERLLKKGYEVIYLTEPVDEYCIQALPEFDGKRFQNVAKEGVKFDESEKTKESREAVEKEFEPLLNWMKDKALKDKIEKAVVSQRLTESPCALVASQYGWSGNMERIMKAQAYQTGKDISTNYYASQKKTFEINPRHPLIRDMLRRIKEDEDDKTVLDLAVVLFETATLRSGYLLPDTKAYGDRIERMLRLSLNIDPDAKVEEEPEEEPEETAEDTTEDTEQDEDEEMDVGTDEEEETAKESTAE
UniProt Q66HD0, residues 22-800: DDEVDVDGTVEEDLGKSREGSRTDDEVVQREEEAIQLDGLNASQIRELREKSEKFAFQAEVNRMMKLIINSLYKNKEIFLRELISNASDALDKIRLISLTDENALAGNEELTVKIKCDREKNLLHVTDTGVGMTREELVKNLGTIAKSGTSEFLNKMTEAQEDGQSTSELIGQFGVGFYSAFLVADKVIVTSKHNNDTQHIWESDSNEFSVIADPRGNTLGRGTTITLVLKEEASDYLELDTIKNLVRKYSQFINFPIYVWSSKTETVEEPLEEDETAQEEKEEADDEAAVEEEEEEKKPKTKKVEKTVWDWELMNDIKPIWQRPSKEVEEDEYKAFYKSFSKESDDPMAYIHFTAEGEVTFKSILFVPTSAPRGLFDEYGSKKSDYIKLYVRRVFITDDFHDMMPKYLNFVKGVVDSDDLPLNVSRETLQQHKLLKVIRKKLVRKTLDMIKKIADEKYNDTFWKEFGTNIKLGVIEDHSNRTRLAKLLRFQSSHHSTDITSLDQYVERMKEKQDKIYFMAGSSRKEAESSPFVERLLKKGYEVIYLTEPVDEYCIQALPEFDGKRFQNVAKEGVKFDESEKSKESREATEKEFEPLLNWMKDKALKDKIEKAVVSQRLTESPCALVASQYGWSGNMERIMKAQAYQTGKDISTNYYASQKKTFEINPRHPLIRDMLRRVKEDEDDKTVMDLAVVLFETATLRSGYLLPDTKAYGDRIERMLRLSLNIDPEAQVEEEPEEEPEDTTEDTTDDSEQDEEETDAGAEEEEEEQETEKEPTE

The target of one experiment is BSA (bovine) (UniProt P02769). Put plainly: epitope mapping ELISA, 100 ng BSA coated as negative control, IgG 1 µg/mL.
The target in experiment [1] is recombinant human GRP94 (human) (UniProt P14625). Briefly: ELISA, 100 ng rhGRP94 coated per well, IgG 0-500 nM. For orientation: ELISA stands for enzyme-linked immunosorbent assay.
The target of the next experiment is rhGRP94 Part. 1 (human) (UniProt P14625). Briefly: epitope mapping ELISA, 100 ng fragment coated, IgG 1 µg/mL.
In experiment [2] the target is recombinant human GRP94 (human) (UniProt P14625). Briefly: ELISA on coated antigen, single IgG concentration not given.
Experiment [3] has as its target recombinant rat GRP94 (rat) (UniProt Q66HD0). Described as above.
Experiment [4] deals with recombinant human GRP94 (human) (UniProt P14625). Briefly: ELISA, antigen coated on plate.
In experiment [5] the target is recombinant rat GRP94 (rat) (UniProt Q66HD0). Put plainly: ELISA, antigen coated on plate.

No constants are given. Whether binding was seen depends on the method and setting. Some entries that bind do so weakly or less than the wild type.

B1: anti-GRP94 human IgG antibody B5 (antibody, V domains shown)
VH: EVQLLESGGGLVQPGGSLRLSCAASGFTFSNYYMSWVRQAPGKGLEWVSGIYPNSGSTYYADSVKGRFTISRDNSKNTLYLQMNSLRAEDTAVYYCARDPLHPARFPFDYWGQGTLVTVSS
VL: QSVLTQPPSASGTPGQRVTISCTGSSSNIGNNAVSWYQQLPGTAPKLLIYADSHRPSGVPDRFSGSKSGTSASLAISGLRSEDEADYYCGAWDASLNAYVFGGGTKLTVL
In the case of B1, the binding entry with BSA (bovine) is listed as “no binding (tested: 1 µg/mL)”; in experiment [1] it was “binds”; with rhGRP94 Part. 1 (human), “binds”; in experiment [2], “binds”; in experiment [3], “binds”; in experiment [4], “binds”. Moreover, the binding result in experiment [5] is “binds”.

B2: anti-GRP94 human IgG antibody 3G7 (antibody, V domains shown)
VH: EVQLLESGGGLVQPGGSLRLSCAASGFTFSNYSMSWVRQAPGKGLEWVSGIYYGSGNKYYADSVKGRFTISRDNSKNTLYLQMNSLRAEDTAVYYCAKNLASFDYWGQGTLVTVSS
VL: QSVLTQPPSASGTPGQRVTISCSGSSSNIGSNSVNWYQQLPGTAPKLLIYSNSHRPSGVPDRFSGSKSGTSASLAISGLRSEDEADYYCGTWDSSLSGYVFGGGTKLTVL
With B2, the binding result with BSA (bovine) is reported as “no binding (tested: 1 µg/mL)”; in experiment [1] it was “binds”; in the experiment with rhGRP94 Part. 1 (human), “binds”; in experiment [2], “binds”; in experiment [3], “binds”; in experiment [4], “binds”. Also, the binding result in experiment [5] was “binds”.

B3: anti-GRP94 human IgG antibody E5 (antibody, V domains shown)
VH: EVQLLESGGGLVQPGGSLRLSCAASGFTFSNYAMSWVRQAPGKGLEWVSGISSSSGSTYYADSVKGRFTTSRDNSKNTLYLQMNSLRAEDTAVYYCARDRHPFSPNWFDYWGQGTLVTVSS
VL: QSVLTQPPSASGTPGQRVTISCSGSPSNIGSNTVTWYQQLPGTAPKLLIYADSHRPSGVPDRFSGSKSGTSASLAISGLRSEDEADYYCASWDDSLNGYVFGGGTKLTVL
For B3, the binding result with BSA (bovine) is recorded as “no binding (tested: 1 µg/mL)”; in experiment [1], “binds”; with rhGRP94 Part. 1 (human) it was “binds”; in experiment [2], “binds”; in experiment [3] it was “binds”; in experiment [4], “binds”. Besides, the binding entry in experiment [5] is “binds”.
